Values quoted from earlier work, collected in patent publication US5439687A, “Dosage forms having zero-order dihydropyridine calcium antagonist release” (priority 1992, dated 1995).

Assays:
[1] = not given; remark: listed apart in the source

Structure (SMILES)	Plasma level peak (20 mg)	Time of plasma level peak (20 mg crystalline)	Absorption of crystalline nifedipine (words)	Maximum soluble in 1000 ml of simulated gastric or intestinal fluid [1]
COC(=O)C1=C(C)NC(C)=C(C(=O)OC)C1c1ccccc1[N+](=O)[O-] [crystalline nifedipine, nifedipine]	about 40 ng/ml	about 1.5 hours	absorbed so slowly that the pharmacokinetic elimination rate exceeds the absorption rate	–
COC(=O)C1=C(C)NC(C)=C(C(=O)OC)C1c1ccccc1[N+](=O)[O-] [nifedipine]	–	–	–	≤ 10 mg
